According to article doi:10.1101/2024.02.22.581562:
These are yes or no findings as the source states them, for the method shown. In cells and extracts the contact can be indirect. Some results given as binding are weak or reduced against the parent protein; the word gives no strength. For part of these data: Tags and fused reporters may be left off the sequences shown.

By UniProt entry, the sequences of proteins in these tests, tags left out. Where a name states a change or a piece, a line headed by the entry shows the natural chain unless it says otherwise. Chains listed by the source or under a name are the forms on record and can include a tag or linker.
UniProt O60331: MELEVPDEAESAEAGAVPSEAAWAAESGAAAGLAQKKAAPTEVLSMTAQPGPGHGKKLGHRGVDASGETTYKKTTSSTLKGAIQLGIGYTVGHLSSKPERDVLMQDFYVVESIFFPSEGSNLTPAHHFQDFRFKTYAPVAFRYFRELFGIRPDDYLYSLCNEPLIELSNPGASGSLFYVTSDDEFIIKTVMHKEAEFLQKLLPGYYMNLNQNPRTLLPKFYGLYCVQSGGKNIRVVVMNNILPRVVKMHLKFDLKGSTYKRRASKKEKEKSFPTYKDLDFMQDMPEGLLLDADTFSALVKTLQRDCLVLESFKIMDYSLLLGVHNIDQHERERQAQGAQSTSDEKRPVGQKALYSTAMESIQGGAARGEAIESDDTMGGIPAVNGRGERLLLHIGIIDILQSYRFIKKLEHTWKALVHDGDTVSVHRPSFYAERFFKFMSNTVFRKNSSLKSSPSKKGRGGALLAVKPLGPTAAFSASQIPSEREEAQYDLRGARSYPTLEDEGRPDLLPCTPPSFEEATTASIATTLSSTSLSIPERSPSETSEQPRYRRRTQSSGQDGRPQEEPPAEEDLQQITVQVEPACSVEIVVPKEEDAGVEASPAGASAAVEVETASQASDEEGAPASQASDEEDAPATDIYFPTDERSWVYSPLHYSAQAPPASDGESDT
mCherry-tagged human PIPKIγ-i5 (O60331, form named): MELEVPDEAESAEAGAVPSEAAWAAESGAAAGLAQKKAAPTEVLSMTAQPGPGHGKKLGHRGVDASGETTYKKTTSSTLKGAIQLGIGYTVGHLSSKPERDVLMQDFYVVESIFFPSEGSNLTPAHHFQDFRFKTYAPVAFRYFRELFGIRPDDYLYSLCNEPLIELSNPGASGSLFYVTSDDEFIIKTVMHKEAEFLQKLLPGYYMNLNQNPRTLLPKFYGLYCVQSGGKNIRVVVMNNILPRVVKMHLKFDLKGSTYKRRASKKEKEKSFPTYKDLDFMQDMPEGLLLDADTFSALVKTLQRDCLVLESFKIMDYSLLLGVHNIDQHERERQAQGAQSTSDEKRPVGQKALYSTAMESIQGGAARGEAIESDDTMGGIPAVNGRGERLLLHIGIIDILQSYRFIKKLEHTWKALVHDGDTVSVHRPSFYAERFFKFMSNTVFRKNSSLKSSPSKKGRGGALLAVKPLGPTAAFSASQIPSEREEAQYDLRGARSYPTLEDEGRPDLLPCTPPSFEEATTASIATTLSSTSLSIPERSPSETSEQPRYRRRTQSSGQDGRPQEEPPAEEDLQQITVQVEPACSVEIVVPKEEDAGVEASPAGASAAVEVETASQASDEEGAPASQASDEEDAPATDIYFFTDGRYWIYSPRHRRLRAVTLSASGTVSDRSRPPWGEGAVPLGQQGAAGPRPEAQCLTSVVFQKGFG
UniProt O14578: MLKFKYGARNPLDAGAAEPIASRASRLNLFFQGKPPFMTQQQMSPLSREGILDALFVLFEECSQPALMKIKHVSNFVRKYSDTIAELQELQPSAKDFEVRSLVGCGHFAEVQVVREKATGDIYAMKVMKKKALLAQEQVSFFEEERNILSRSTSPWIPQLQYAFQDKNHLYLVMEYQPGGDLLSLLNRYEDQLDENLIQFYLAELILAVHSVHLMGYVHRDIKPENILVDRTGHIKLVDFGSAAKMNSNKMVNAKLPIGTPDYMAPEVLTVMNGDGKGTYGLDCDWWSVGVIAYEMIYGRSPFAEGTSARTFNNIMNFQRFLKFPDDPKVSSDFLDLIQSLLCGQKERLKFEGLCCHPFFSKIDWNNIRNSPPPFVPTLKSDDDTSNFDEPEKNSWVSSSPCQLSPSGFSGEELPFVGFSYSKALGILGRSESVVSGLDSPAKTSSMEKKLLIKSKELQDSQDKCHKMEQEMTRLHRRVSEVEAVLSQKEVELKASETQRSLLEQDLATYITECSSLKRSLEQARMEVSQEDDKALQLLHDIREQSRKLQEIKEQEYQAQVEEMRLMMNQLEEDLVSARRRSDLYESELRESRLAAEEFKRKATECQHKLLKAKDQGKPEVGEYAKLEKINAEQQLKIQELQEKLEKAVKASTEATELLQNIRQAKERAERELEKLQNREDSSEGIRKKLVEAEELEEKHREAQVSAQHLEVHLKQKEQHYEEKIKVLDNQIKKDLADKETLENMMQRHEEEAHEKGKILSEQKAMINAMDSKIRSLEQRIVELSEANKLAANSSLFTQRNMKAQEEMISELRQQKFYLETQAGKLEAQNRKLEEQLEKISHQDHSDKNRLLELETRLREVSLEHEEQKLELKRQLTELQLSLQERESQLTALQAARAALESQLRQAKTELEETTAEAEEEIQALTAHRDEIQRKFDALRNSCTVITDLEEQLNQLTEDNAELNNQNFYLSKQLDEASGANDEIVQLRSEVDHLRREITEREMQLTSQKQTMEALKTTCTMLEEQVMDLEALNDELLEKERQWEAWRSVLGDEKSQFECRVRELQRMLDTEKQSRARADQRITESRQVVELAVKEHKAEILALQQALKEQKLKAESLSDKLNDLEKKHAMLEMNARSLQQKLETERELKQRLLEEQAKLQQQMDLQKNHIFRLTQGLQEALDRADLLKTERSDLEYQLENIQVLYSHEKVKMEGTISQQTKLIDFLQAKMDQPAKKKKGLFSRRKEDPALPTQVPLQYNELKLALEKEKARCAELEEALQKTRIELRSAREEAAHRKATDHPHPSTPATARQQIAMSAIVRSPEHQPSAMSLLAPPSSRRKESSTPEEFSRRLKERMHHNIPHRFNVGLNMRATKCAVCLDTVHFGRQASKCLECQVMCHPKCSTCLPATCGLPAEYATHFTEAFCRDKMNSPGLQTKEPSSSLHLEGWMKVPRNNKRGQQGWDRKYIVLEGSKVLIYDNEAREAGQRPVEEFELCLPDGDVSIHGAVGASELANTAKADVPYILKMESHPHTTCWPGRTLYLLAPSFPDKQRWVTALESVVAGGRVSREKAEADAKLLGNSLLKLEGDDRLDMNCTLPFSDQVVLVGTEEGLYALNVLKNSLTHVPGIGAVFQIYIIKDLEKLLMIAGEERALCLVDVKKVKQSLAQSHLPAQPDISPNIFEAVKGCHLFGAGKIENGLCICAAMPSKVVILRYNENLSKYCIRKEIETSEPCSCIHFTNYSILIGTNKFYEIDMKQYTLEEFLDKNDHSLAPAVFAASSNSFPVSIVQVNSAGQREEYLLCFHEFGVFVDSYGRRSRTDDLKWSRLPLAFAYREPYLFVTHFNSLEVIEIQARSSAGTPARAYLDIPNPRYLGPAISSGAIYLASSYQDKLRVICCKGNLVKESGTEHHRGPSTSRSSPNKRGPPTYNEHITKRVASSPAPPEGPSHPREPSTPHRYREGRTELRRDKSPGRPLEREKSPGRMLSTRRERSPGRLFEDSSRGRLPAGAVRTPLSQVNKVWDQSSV

Key:
Assay in all cases: co-IP
[1] = target: PIPKIγ (endogenous, HeLa) (human (endogenous in HeLa)) (UniProt O60331)
[2] = target: T1, SEPT2 (endogenous, HeLa) (human (endogenous in HeLa)) (UniProt Q15019)
T1 sequence: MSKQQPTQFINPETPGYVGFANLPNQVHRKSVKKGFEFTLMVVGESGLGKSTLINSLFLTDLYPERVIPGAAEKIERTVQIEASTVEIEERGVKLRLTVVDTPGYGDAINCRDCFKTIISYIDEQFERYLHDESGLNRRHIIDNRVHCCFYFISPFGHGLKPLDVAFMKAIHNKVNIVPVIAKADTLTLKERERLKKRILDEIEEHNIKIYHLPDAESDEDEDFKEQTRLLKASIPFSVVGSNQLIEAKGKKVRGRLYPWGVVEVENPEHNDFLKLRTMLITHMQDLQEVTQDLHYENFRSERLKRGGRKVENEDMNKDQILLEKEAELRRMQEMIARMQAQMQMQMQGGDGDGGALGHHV

[3] = target: mCherry-tagged human PIPKIγ-i5 (human) (UniProt O60331)

| Molecule | binding [1] | binding [2] | binding [3] |
| --- | --- | --- | --- |
| citron kinase (from UniProt O14578 1-2027) | binds | binds |  |
| anillin (protein, UniProt Q9NQW6 1-1124) MDPFTEKLLERTRARRENLQRKMAERPTAAPRSMTHAKRARQPLSEASNQQPLSGGEEKSCTKPSPSKKRCSDNTEVEVSNLENKQPVESTSAKSCSPSPVSPQVQPQAADTISDSVAVPASLLGMRRGLNSRLEATAASSVKTRMQKLAEQRRRWDNDDMTDDIPESSLFSPMPSEEKAASPPRPLLSNASATPVGRRGRLANLAATICSWEDDVNHSFAKQNSVQEQPGTACLSKFSSASGASARINSSSVKQEATFCSQRDGDASLNKALSSSADDASLVNASISSSVKATSPVKSTTSITDAKSCEGQNPELLPKTPISPLKTGVSKPIVKSTLSQTVPSKGELSREICLQSQSKDKSTTPGGTGIKPFLERFGERCQEHSKESPARSTPHRTPIITPNTKAIQERLFKQDTSSSTTHLAQQLKQERQKELACLRGRFDKGNIWSAEKGGNSKSKQLETKQETHCQSTPLKKHQGVSKTQSLPVTEKVTENQIPAKNSSTEPKGFTECEMTKSSPLKITLFLEEDKSLKVTSDPKVEQKIEVIREIEMSVDDDDINSSKVINDLFSDVLEEGELDMEKSQEEMDQALAESSEEQEDALNISSMSLLAPLAQTVGVVSPESLVSTPRLELKDTSRSDESPKPGKFQRTRVPRAESGDSLGSEDRDLLYSIDAYRSQRFKETERPSIKQVIVRKEDVTSKLDEKNNAFPCQVNIKQKMQELNNEINMQQTVIYQASQALNCCVDEEHGKGSLEEAEAERLLLIATGKRTLLIDELNKLKNEGPQRKNKASPQSEFMPSKGSVTLSEIRLPLKADFVCSTVQKPDAANYYYLIILKAGAENMVATPLASTSNSLNGDALTFTTTFTLQDVSNDFEINIEVYSLVQKKDPSGLDKKKKTSKSKAITPKRLLTSITTKSNIHSSVMASPGGLSAVRTSNFALVGSYTLSLSSVGNTKFVLDKVPFLSSLEGHIYLKIKCQVNSSVEERGFLTIFEDVSGFGAWHRRWCVLSGNCISYWTYPDDEKRKNPIGRINLANCTSRQIEPANREFCARRNTFELITVRPQREDDRETLVSQCRDTLCVTKNWLSADTKEERDLWMQKLNQVLVDIRLWQPDACYKPIGKP | no binding | binds |  |
| myc-tagged SEPT7 (protein, UniProt Q16181 1-437) MSVSARSAAAEERSVNSSTMVAQQKNLEGYVGFANLPNQVYRKSVKRGFEFTLMVVGESGLGKSTLINSLFLTDLYSPEYPGPSHRIKKTVQVEQSKVLIKEGGVQLLLTIVDTPGFGDAVDNSNCWQPVIDYIDSKFEDYLNAESRVNRRQMPDNRVQCCLYFIAPSGHGLKPLDIEFMKRLHEKVNIIPLIAKADTLTPEECQQFKKQIMKEIQEHKIKIYEFPETDDEEENKLVKKIKDRLPLAVVGSNTIIEVNGKRVRGRQYPWGVAEVENGEHCDFTILRNMLIRTHMQDLKDVTNNVHYENYRSRKLAAVTYNGVDNNKNKGQLTKSPLAQMEEERREHVAKMKKMEMEMEQVFEMKVKEKVQKLKDSEAELQRRHEQMKKNLEAQHKELEEKRRQFEDEKANWEAQQRILEQQNSSRTLEKNKKKGKIF |  |  | binds |
| myc-tagged SEPT9 (protein, UniProt Q9UHD8 1-586) MKKSYSGGTRTSSGRLRRLGDSSGPALKRSFEVEEVETPNSTPPRRVQTPLLRATVASSTQKFQDLGVKNSEPSARHVDSLSQRSPKASLRRVELSGPKAAEPVSRRTELSIDISSKQVENAGAIGPSRFGLKRAEVLGHKTPEPAPRRTEITIVKPQESAHRRMEPPASKVPEVPTAPATDAAPKRVEIQMPKPAEAPTAPSPAQTLENSEPAPVSQLQSRLEPKPQPPVAEATPRSQEATEAAPSCVGDMADTPRDAGLKQAPASRNEKAPVDFGYVGIDSILEQMRRKAMKQGFEFNIMVVGQSGLGKSTLINTLFKSKISRKSVQPTSEERIPKTIEIKSITHDIEEKGVRMKLTVIDTPGFGDHINNENCWQPIMKFINDQYEKYLQEEVNINRKKRIPDTRVHCCLYFIPATGHSLRPLDIEFMKRLSKVVNIVPVIAKADTLTLEERVHFKQRITADLLSNGIDVYPQKEFDEDSEDRLVNEKFREMIPFAVVGSDHEYQVNGKRILGRKTKWGTIEVENTTHCEFAYLRDLLIRTHMQNIKDITSSIHFEAYRVKRLNEGSSAMANGMEEKEPEAPEM |  |  | binds |
| myc-tagged SEPT5 (protein, UniProt Q99719 1-369) MSTGLRYKSKLATPEDKQDIDKQYVGFATLPNQVHRKSVKKGFDFTLMVAGESGLGKSTLVHSLFLTDLYKDRKLLSAEERISQTVEILKHTVDIEEKGVKLKLTIVDTPGFGDAVNNTECWKPITDYVDQQFEQYFRDESGLNRKNIQDNRVHCCLYFISPFGHGLRPVDVGFMKALHEKVNIVPLIAKADCLVPSEIRKLKERIREEIDKFGIHVYQFPECDSDEDEDFKQQDRELKESAPFAVIGSNTVVEAKGQRVRGRLYPWGIVEVENQAHCDFVKLRNMLIRTHMHDLKDVTCDVHYENYRAHCIQQMTSKLTQDSRMESPIPILPLPTPDAETEKLIRMKDEELRRMQEMLQRMKQQMQDQ |  |  | binds |
| mitotic kinesin-like protein 1 (MKLP1) (protein, UniProt Q02241 1-960) MKSARAKTPRKPTVKKGSQTNLKDPVGVYCRVRPLGFPDQECCIEVINNTTVQLHTPEGYRLNRNGDYKETQYSFKQVFGTHTTQKELFDVVANPLVNDLIHGKNGLLFTYGVTGSGKTHTMTGSPGEGGLLPRCLDMIFNSIGSFQAKRYVFKSNDRNSMDIQCEVDALLERQKREAMPNPKTSSSKRQVDPEFADMITVQEFCKAEEVDEDSVYGVFVSYIEIYNNYIYDLLEEVPFDPIKPKPPQSKLLREDKNHNMYVAGCTEVEVKSTEEAFEVFWRGQKKRRIANTHLNRESSRSHSVFNIKLVQAPLDADGDNVLQEKEQITISQLSLVDLAGSERTNRTRAEGNRLREAGNINQSLMTLRTCMDVLRENQMYGTNKMVPYRDSKLTHLFKNYFDGEGKVRMIVCVNPKAEDYEENLQVMRFAEVTQEVEVARPVDKAICGLTPGRRYRNQPRGPVGNEPLVTDVVLQSFPPLPSCEILDINDEQTLPRLIEALEKRHNLRQMMIDEFNKQSNAFKALLQEFDNAVLSKENHMQGKLNEKEKMISGQKLEIERLEKKNKTLEYKIEILEKTTTIYEEDKRNLQQELETQNQKLQRQFSDKRRLEARLQGMVTETTMKWEKECERRVAAKQLEMQNKLWVKDEKLKQLKAIVTEPKTEKPERPSRERDREKVTQRSVSPSPVPLSSNYIAQISNGQQLMSQPQLHRRSNSCSSISVASCISEWEQKIPTYNTPLKVTSIARRRQQEPGQSKTCIVSDRRRGMYWTEGREVVPTFRNEIEIEEDHCGRLLFQPDQNAPPIRLRHRRSRSAGDRWVDHKPASNMQTETVMQPHVPHAITVSVANEKALAKCEKYMLTHQELASDGEIETKLIKGDIYKTRGGGQSVQFTDIETLKQESPNGSRKRRSSTVAPAQPDGAESEWTDVETRCSVAVEMRAGSQLGPGYQHHAQPKRKKP | binds | binds |  |
